The target of assay [1] is T1, Streptococcus pneumoniae gyrase A subunit with truncated C-terminal domain (GyrA-ΔCTD, residues 1–487) (Streptococcus pneumoniae) (UniProt P72524).
T1 sequence: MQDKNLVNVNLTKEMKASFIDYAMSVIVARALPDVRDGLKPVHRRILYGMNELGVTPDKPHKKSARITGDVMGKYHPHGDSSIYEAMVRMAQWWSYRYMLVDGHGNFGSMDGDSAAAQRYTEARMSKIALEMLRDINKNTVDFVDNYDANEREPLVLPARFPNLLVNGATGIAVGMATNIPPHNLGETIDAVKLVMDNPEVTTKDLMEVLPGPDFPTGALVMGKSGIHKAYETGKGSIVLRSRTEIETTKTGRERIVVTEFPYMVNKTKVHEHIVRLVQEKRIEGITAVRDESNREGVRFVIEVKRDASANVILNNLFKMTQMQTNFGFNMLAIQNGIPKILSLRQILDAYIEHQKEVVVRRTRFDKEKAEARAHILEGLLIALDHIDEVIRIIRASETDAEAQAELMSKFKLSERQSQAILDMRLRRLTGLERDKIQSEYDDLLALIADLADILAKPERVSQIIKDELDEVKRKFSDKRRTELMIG
The assay is described as follows: negative stain EM; Tetrahedral complex formed from GyrA-ΔCTD, GyrB, 44 bp DNA, ciprofloxacin and novobiocin, purified by GraFix; 3D reconstruction with tetrahedral symmetry; both purified.

Chains of the proteins cited; added tags and fusions are not shown.
UniProt P0A4L9: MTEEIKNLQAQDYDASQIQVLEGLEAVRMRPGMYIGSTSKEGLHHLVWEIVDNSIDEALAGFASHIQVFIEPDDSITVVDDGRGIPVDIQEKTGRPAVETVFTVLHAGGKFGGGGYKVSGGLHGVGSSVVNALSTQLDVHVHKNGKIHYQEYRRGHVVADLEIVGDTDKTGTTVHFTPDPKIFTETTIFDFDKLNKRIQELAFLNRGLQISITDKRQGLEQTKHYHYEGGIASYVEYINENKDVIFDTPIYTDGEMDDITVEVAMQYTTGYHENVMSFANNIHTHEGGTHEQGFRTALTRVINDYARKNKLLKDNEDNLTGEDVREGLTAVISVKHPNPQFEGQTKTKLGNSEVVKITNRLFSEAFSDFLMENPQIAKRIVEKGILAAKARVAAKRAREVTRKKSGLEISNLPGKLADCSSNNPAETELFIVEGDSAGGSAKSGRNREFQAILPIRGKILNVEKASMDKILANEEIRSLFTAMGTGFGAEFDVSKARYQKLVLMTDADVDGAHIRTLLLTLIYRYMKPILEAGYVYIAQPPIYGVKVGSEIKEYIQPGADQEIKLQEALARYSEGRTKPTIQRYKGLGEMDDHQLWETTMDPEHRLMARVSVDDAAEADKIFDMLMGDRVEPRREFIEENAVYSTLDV

For assay [2], the target named is T1, Streptococcus pneumoniae gyrase A subunit with truncated C-terminal domain (GyrA-ΔCTD, residues 1–487) (Streptococcus pneumoniae). The assay can be described thus: negative stain EM; Dihedral complex formed from GyrA-ΔCTD and 44 bp DNA, with or without ciprofloxacin, GraFix gradient with or without glutaraldehyde; 2D classification and 3D reconstruction; both purified.

Among the data in article PMC6286129, “CryoEM structures of open dimers of gyrase A in complex with DNA illuminate mechanism of strand passage” (eLife, 2018) are binding values, retold here.

No constants are given. Whether binding was seen depends on the method and setting. Some entries that bind do so weakly or less than the wild type.

Regarding “Streptococcus pneumoniae gyrase B subunit (from UniProt P0A4L9 1-648)”, the binding entry in assay [1] is “no binding”.

B1: Streptococcus pneumoniae gyrase A subunit with truncated C-terminal domain (GyrA-ΔCTD, residues 1–487) (domain or fragment, UniProt P72524 1-487, looked up)
chain: MQDKNLVNVNLTKEMKASFIDYAMSVIVARALPDVRDGLKPVHRRILYGMNELGVTPDKPHKKSARITGDVMGKYHPHGDSSIYEAMVRMAQWWSYRYMLVDGHGNFGSMDGDSAAAQRYTEARMSKIALEMLRDINKNTVDFVDNYDANEREPLVLPARFPNLLVNGATGIAVGMATNIPPHNLGETIDAVKLVMDNPEVTTKDLMEVLPGPDFPTGALVMGKSGIHKAYETGKGSIVLRSRTEIETTKTGRERIVVTEFPYMVNKTKVHEHIVRLVQEKRIEGITAVRDESNREGVRFVIEVKRDASANVILNNLFKMTQMQTNFGFNMLAIQNGIPKILSLRQILDAYIEHQKEVVVRRTRFDKEKAEARAHILEGLLIALDHIDEVIRIIRASETDAEAQAELMSKFKLSERQSQAILDMRLRRLTGLERDKIQSEYDDLLALIADLADILAKPERVSQIIKDELDEVKRKFSDKRRTELMIG
notes: DNA gyrase subunit A, Streptococcus pneumoniae, gene cloned from the ATCC genome 700669DQ; residues 1-487 (C-terminal domain removed); The vector pMCSG7 adds 24 amino acids at the N-terminus, with a six amino acid His-tag and a TEV cleavage site; It forms open dimers that assemble around a 44 bp DNA into oligomers of four dimers (Dihedral complex) or six dimers (Tetrahedral complex); also called …
As for B1, the binding result in assay [2] and in assay [1] was “binds” in each case.
